# Some of the results follow. The list holds hits alone, and they repeat only in part.
# By UniProt entry, the sequences of proteins in these tests, tags left out.
# ACTBL2, Q562R1, UniProt Q562R1, whole entry: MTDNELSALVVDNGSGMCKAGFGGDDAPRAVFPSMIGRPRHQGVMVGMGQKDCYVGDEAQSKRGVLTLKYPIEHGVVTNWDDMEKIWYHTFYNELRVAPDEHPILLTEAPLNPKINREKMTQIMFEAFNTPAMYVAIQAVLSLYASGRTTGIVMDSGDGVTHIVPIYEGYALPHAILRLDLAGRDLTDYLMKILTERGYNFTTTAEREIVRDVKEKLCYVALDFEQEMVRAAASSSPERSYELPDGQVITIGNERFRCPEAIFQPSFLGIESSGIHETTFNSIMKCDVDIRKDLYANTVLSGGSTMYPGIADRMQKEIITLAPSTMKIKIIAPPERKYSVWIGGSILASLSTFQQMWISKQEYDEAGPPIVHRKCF
# EIF3L, Q9Y262, UniProt Q9Y262, whole entry: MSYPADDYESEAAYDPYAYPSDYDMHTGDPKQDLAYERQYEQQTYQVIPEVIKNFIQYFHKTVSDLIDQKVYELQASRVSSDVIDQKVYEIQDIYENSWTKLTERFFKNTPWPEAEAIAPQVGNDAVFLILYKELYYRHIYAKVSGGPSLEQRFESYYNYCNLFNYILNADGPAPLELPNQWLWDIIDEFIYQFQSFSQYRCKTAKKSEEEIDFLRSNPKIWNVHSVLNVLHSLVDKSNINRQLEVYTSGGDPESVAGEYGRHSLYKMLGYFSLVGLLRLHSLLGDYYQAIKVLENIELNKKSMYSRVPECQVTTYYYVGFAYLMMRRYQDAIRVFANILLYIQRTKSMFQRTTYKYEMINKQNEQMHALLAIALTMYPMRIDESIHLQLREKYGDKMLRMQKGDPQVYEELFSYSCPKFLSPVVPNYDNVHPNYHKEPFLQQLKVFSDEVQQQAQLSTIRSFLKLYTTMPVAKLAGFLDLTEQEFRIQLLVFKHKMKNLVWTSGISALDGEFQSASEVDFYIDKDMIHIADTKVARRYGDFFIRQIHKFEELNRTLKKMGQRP
# ACTL6A, O96019, UniProt O96019, whole entry: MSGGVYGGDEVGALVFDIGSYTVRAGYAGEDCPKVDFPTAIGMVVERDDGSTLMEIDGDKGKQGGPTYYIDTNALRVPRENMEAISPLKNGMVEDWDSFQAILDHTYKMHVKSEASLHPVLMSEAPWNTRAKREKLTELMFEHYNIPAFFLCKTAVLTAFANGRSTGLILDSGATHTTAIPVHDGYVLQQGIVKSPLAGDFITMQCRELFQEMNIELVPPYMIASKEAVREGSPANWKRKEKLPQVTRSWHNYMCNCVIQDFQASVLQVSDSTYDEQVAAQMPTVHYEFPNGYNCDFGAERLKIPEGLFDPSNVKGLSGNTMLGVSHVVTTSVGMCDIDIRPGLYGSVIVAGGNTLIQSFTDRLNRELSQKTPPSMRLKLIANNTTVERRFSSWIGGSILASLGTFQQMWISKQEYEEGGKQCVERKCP
# ATP6V1A, P38606, UniProt P38606, whole entry: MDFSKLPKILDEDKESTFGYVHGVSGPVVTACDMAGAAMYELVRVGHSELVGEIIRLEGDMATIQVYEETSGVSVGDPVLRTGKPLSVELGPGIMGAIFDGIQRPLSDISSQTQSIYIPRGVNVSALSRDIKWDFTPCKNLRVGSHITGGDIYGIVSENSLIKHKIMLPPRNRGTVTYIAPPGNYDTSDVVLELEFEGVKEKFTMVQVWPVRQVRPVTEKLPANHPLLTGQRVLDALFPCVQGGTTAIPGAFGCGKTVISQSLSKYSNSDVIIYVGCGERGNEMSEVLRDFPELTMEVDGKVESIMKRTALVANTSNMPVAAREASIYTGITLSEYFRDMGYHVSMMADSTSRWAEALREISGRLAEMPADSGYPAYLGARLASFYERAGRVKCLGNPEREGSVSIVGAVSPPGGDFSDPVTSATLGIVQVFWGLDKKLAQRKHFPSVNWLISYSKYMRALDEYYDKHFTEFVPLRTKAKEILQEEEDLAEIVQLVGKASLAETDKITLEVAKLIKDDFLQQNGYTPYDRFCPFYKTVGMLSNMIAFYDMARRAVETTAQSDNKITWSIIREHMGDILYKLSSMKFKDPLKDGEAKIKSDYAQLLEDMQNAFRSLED
# CCAR2, Q8N163, UniProt Q8N163, whole entry: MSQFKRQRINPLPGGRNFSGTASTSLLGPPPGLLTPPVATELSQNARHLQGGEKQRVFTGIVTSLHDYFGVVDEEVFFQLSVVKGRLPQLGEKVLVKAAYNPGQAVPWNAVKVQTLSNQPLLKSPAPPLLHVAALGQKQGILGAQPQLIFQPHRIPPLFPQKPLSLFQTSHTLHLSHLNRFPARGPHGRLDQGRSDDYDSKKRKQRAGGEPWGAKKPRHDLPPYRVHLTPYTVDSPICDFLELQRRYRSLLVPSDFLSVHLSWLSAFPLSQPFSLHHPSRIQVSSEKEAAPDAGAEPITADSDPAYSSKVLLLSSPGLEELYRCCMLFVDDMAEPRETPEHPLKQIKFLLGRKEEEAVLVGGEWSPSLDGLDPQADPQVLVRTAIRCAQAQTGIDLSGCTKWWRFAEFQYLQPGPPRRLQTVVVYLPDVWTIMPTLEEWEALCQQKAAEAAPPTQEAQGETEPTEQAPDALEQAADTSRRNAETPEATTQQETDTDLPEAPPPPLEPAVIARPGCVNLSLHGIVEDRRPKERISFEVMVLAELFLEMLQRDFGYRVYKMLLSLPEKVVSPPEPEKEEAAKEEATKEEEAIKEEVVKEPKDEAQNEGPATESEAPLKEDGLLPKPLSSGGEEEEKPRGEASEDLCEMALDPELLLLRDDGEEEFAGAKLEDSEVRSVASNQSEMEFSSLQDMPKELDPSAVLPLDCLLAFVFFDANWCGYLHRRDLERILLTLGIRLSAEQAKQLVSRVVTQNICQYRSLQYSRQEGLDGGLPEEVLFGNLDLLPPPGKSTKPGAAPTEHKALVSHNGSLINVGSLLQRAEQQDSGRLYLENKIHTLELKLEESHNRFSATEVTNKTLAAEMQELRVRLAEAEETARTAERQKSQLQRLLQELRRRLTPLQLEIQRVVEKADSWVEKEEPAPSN
# EIF3F, O00303, UniProt O00303, whole entry: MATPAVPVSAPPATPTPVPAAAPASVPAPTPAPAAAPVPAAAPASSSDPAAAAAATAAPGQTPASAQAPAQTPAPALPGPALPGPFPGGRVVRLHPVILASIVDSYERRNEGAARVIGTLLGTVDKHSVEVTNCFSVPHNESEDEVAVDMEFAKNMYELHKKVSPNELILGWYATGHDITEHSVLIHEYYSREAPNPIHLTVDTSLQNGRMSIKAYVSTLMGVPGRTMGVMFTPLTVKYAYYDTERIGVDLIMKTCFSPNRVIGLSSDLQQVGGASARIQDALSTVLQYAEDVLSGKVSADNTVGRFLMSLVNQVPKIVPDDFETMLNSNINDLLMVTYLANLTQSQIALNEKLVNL
# NDUFS6, O75380, UniProt O75380, whole entry: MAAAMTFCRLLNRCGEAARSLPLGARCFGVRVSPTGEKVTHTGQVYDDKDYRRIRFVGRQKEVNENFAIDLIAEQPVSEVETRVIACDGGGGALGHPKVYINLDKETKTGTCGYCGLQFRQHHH
# PPP1CA, P62136, UniProt P62136, whole entry: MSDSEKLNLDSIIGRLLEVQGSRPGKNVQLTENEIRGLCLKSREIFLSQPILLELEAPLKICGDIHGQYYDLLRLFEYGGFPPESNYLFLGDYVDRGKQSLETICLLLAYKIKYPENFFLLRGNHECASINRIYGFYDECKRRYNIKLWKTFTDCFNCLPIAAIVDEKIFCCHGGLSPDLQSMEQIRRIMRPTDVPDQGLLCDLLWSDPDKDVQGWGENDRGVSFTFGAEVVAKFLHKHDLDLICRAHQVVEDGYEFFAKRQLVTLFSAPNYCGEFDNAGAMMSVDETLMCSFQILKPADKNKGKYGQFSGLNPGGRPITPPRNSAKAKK
# What was measured:
# Experiment in all cases: PRISMA enrichment of interactor (LFQ) in peptide spot vs all other peptide spots (log2 fold change); higher = stronger / more specific binding of the interactor to the peptide
# ACTBL2, Q562R1 = target: ACTBL2, Q562R1
# Experimental: (§1)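 PRISMA: 15-aa overlapping tiles (offset 8 aa) of 60 microproteins, plus SOS1/GLUT1 control peptides, were spot-synthesized on cellulose membranes in triplicate. Membranes were incubated with benzonase-treated HEK293T lysate, and bound proteins were identified by LC-MS/MS with LFQ. Enrichment is the log2 fold change of each protein in one spot versus all other spots. Only interactors passing the significance cutoff are listed.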
# ARCN1, P48444 = target: ARCN1, P48444
# Experimental: as §1
# BZW1, Q7L1Q6 = target: BZW1, Q7L1Q6
# Experimental: as §1
# CHERP, Q8IWX8 = target: CHERP, Q8IWX8
# Experimental: as §1
# EIF3L, Q9Y262 = target: EIF3L, Q9Y262
# Experimental: as §1
# GAPVD1, Q14C86 = target: GAPVD1, Q14C86
# Experimental: as §1
# OGT, O15294 = target: OGT, O15294
# Experimental: as §1
# PDCD6IP, Q8WUM4 = target: PDCD6IP, Q8WUM4
# Experimental: as §1
# SCPEP1, Q9HB40 = target: SCPEP1, Q9HB40
# Experimental: as §1
# YARS, P54577 = target: YARS, P54577
# Experimental: as §1
# ACTL6A, O96019 = target: ACTL6A, O96019
# Experimental: as §1
# AHSG, P02765 = target: AHSG, P02765
# Experimental: as §1
# AKAP8, O43823 = target: AKAP8, O43823
# Experimental: as §1
# AKR1C1, Q04828 = target: AKR1C1, Q04828
# Experimental: as §1
# ARMC6, Q6NXE6 = target: ARMC6, Q6NXE6
# Experimental: as §1
# ATP5MF, P56134 = target: ATP5MF, P56134
# Experimental: as §1
# ATP6V1A, P38606 = target: ATP6V1A, P38606
# Experimental: as §1
# BHMT, Q93088 = target: BHMT, Q93088
# Experimental: as §1
# CARM1, Q86X55 = target: CARM1, Q86X55
# Experimental: as §1
# CCAR2, Q8N163 = target: CCAR2, Q8N163
# Experimental: as §1
# DDX42, Q86XP3 = target: DDX42, Q86XP3
# Experimental: as §1
# EIF3F, O00303 = target: EIF3F, O00303
# Experimental: as §1
# EXOSC10, Q01780 = target: EXOSC10, Q01780
# Experimental: as §1
# FADS1, O60427 = target: FADS1, O60427
# Experimental: as §1
# FAM207A, Q9NSI2 = target: FAM207A, Q9NSI2
# Experimental: as §1
# FARSB, Q9NSD9 = target: FARSB, Q9NSD9
# Experimental: as §1
# GATA6, Q92908 = target: GATA6, Q92908
# Experimental: as §1
# HADHA, P40939 = target: HADHA, P40939
# Experimental: as §1
# ITCH, Q96J02 = target: ITCH, Q96J02
# Experimental: as §1
# KIF18A, Q8NI77 = target: KIF18A, Q8NI77
# Experimental: as §1
# MED23, Q9ULK4 = target: MED23, Q9ULK4
# Experimental: as §1
# MTHFD2, P13995 = target: MTHFD2, P13995
# Experimental: as §1
# MTOR, P42345 = target: MTOR, P42345
# Experimental: as §1
# MTX2, O75431 = target: MTX2, O75431
# Experimental: as §1
# NDUFS6, O75380 = target: NDUFS6, O75380
# Experimental: as §1
# PPP1CA, P62136 = target: PPP1CA, P62136
# Experimental: as §1
# PPP1CC, P36873 = target: PPP1CC, P36873
# Experimental: as §1
# PRAF2, O60831 = target: PRAF2, O60831
# Experimental: as §1
# PRDX6, P30041 = target: PRDX6, P30041
# Experimental: as §1
# PRMT1, Q99873 = target: PRMT1, Q99873
# Experimental: as §1
# RP9, Q8TA86 = target: RP9, Q8TA86
# Experimental: as §1
# SNU13, P55769 = target: SNU13, P55769
# Experimental: as §1
# SRFBP1, Q8NEF9 = target: SRFBP1, Q8NEF9
# Experimental: as §1
# TNIK, Q9UKE5 = target: TNIK, Q9UKE5
# Experimental: as §1
# TOP2B, Q02880 = target: TOP2B, Q02880
# Experimental: as §1
# UBE2N, P61088 = target: UBE2N, P61088
# Experimental: as §1
# UMPS, P11172 = target: UMPS, P11172
# Experimental: as §1
# VCP, P55072 = target: VCP, P55072
# Experimental: as §1
# YTHDC1, Q96MU7 = target: YTHDC1, Q96MU7
# Experimental: as §1
# ZC3H11A, O75152 = target: ZC3H11A, O75152
# Experimental: as §1
# ZNF281, Q9Y2X9 = target: ZNF281, Q9Y2X9
# Experimental: as §1
binder,measurement,setting,value
RIKSSPVFQIPKNDD [MKKS],PRISMA enrichment of interactor (log2),"ACTBL2, Q562R1",4.32
same,PRISMA enrichment of interactor (log2),"ARCN1, P48444",4.55
same,PRISMA enrichment of interactor (log2),"BZW1, Q7L1Q6",5.92
same,PRISMA enrichment of interactor (log2),"CHERP, Q8IWX8",5.88
same,PRISMA enrichment of interactor (log2),"EIF3L, Q9Y262",9.28
same,PRISMA enrichment of interactor (log2),"GAPVD1, Q14C86",4.72
same,PRISMA enrichment of interactor (log2),"OGT, O15294",6.78
same,PRISMA enrichment of interactor (log2),"PDCD6IP, Q8WUM4",5.25
same,PRISMA enrichment of interactor (log2),"SCPEP1, Q9HB40",4.33
same,PRISMA enrichment of interactor (log2),"YARS, P54577",5.95
ARGPGGGPLLASFAT [RP11-140K17.3_2],PRISMA enrichment of interactor (log2),"ACTL6A, O96019",4.52
same,PRISMA enrichment of interactor (log2),"AHSG, P02765",4.95
same,PRISMA enrichment of interactor (log2),"AKAP8, O43823",4.43
same,PRISMA enrichment of interactor (log2),"AKR1C1, Q04828",6.2
same,PRISMA enrichment of interactor (log2),"ARMC6, Q6NXE6",5.68
same,PRISMA enrichment of interactor (log2),"ATP5MF, P56134",5.19
same,PRISMA enrichment of interactor (log2),"ATP6V1A, P38606",4.83
same,PRISMA enrichment of interactor (log2),"BHMT, Q93088",5.79
same,PRISMA enrichment of interactor (log2),"CARM1, Q86X55",5.19
same,PRISMA enrichment of interactor (log2),"CCAR2, Q8N163",5.58
same,PRISMA enrichment of interactor (log2),"DDX42, Q86XP3",7.98
same,PRISMA enrichment of interactor (log2),"EIF3F, O00303",4.81
same,PRISMA enrichment of interactor (log2),"EXOSC10, Q01780",4.77
same,PRISMA enrichment of interactor (log2),"FADS1, O60427",8.36
same,PRISMA enrichment of interactor (log2),"FAM207A, Q9NSI2",5.97
same,PRISMA enrichment of interactor (log2),"FARSB, Q9NSD9",8.66
same,PRISMA enrichment of interactor (log2),"GATA6, Q92908",4.55
same,PRISMA enrichment of interactor (log2),"HADHA, P40939",5.55
same,PRISMA enrichment of interactor (log2),"ITCH, Q96J02",4.57
same,PRISMA enrichment of interactor (log2),"KIF18A, Q8NI77",4.54
same,PRISMA enrichment of interactor (log2),"MED23, Q9ULK4",5.2
same,PRISMA enrichment of interactor (log2),"MTHFD2, P13995",10.2
same,PRISMA enrichment of interactor (log2),"MTOR, P42345",8.47
same,PRISMA enrichment of interactor (log2),"MTX2, O75431",4.58
same,PRISMA enrichment of interactor (log2),"NDUFS6, O75380",4.41
same,PRISMA enrichment of interactor (log2),"OGT, O15294",5.08
same,PRISMA enrichment of interactor (log2),"PPP1CA, P62136",10.9
same,PRISMA enrichment of interactor (log2),"PPP1CC, P36873",6.86
same,PRISMA enrichment of interactor (log2),"PRAF2, O60831",5.47
same,PRISMA enrichment of interactor (log2),"PRDX6, P30041",4.37
same,PRISMA enrichment of interactor (log2),"PRMT1, Q99873",4.39
same,PRISMA enrichment of interactor (log2),"RP9, Q8TA86",5.52
same,PRISMA enrichment of interactor (log2),"SNU13, P55769",4.91
same,PRISMA enrichment of interactor (log2),"SRFBP1, Q8NEF9",4.41
same,PRISMA enrichment of interactor (log2),"TNIK, Q9UKE5",4.14
same,PRISMA enrichment of interactor (log2),"TOP2B, Q02880",6.82
same,PRISMA enrichment of interactor (log2),"UBE2N, P61088",4.92
same,PRISMA enrichment of interactor (log2),"UMPS, P11172",5.91
same,PRISMA enrichment of interactor (log2),"VCP, P55072",4.61
same,PRISMA enrichment of interactor (log2),"YTHDC1, Q96MU7",9.15
same,PRISMA enrichment of interactor (log2),"ZC3H11A, O75152",4.97
same,PRISMA enrichment of interactor (log2),"ZNF281, Q9Y2X9",8.4

# Part of the list above, with tabs:
binder	measurement	setting	value
ARGPGGGPLLASFAT [RP11-140K17.3_2]	PRISMA enrichment of interactor (log2)	ATP5MF, P56134	5.19
same	PRISMA enrichment of interactor (log2)	ATP6V1A, P38606	4.83
same	PRISMA enrichment of interactor (log2)	BHMT, Q93088	5.79
same	PRISMA enrichment of interactor (log2)	CARM1, Q86X55	5.19

# — the supplement of paper PMC10032668
